Results deposited as PubChem BioAssay AID1508597 (Cure First, 2020).

- Screen: 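Survival screen with siRNA in ovarian cancer cells derived from patients, with or without rucaparib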 (primary screen)
- Cell system: human ovarian carcinoma lines grown from tumours: OCI-P5x (papillary serous) and OCI-C5x (clear cell)
- Reagents: siRNA pool against human genes, 1.25 pmol siRNA per well
- Timing: 72 h or 96 h, depending on the cell culture
- Treatment: rucaparib 20 µM (about IC30) or vehicle, present until read-out
- Rucaparib or vehicle: Vehicle
- Cell line: OCI-C5x (clear cell)
- Measurement: 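ATP luminescence measured at 72 or 96 h according to the culture, then normalised and expressed as percent viability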
- Scale: viability, normalised: higher = more viable cells remaining
- Active means: 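Active when normalised viability falls below 80 percent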
- Meaning of the calls: active = viability under 80%; inactive = viability 80% or more
This is an unselected part of the about 2,100 reagents, in one setting of the screen. 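Calls flag viability under 80% in either arm, not effects specific to rucaparib; the reference for percent is not stated.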 A reagent listed more than once was tested more than once; the source does not tell the runs apart. Not stated in the record: the 100% reference.

For FGFR2 (fibroblast growth factor receptor 2) [SID405526784], technical replicate 1 the deposit lists viability, normalised (%) = 59.9; active.
For FGFR2 (fibroblast growth factor receptor 2) [SID405526784], technical replicate 1, the values are viability, normalised (%) = 33.8; active.
FGFR2 (fibroblast growth factor receptor 2) [SID405526784], technical replicate 2 scored viability, normalised (%) = 48.2; active.
For FGFR2 (fibroblast growth factor receptor 2) [SID405526784], technical replicate 2 the deposit lists viability, normalised (%) = 61.1; active.
For FGFR2 (fibroblast growth factor receptor 2) [SID405526784], technical replicate 3, the values are viability, normalised (%) = 43.3; active.
FGFR2 (fibroblast growth factor receptor 2) [SID405526784], technical replicate 3 showed viability, normalised (%) = 44.3; active.

Records listed so far called active:
FGFR2 (fibroblast growth factor receptor 2) [SID405526784], technical replicate 1 | viability, normalised (%) = 59.9; activity call = active
FGFR2 (fibroblast growth factor receptor 2) [SID405526784], technical replicate 1 | viability, normalised (%) = 33.8; activity call = active
FGFR2 (fibroblast growth factor receptor 2) [SID405526784], technical replicate 2 | viability, normalised (%) = 48.2; activity call = active
FGFR2 (fibroblast growth factor receptor 2) [SID405526784], technical replicate 2 | viability, normalised (%) = 61.1; activity call = active
FGFR2 (fibroblast growth factor receptor 2) [SID405526784], technical replicate 3 | viability, normalised (%) = 43.3; activity call = active
FGFR2 (fibroblast growth factor receptor 2) [SID405526784], technical replicate 3 | viability, normalised (%) = 44.3; activity call = active

Further records follow.
For PRDM8 (PR/SET domain 8) [SID405527192], technical replicate 1 the deposit lists viability, normalised (%) = 39.9; active.
PRDM8 (PR/SET domain 8) [SID405527192], technical replicate 2 gave viability, normalised (%) = 21.2; active.
PRDM8 (PR/SET domain 8) [SID405527192], technical replicate 3 gave viability, normalised (%) = 36.7; active.
With CILK1 (ciliogenesis associated kinase 1) [SID405528522], technical replicate 1, the values are viability, normalised (%) = 48; active.
With CILK1 (ciliogenesis associated kinase 1) [SID405528522], technical replicate 2 the deposit lists viability, normalised (%) = 52.2; active.
For CILK1 (ciliogenesis associated kinase 1) [SID405528522], technical replicate 3, the entry reads viability, normalised (%) = 50.3; active.
